Results published in PMC6487834.
No constants are given. Whether binding was seen depends on the method and setting. In cells and extracts the contact can be indirect. These calls come from enrichment with a bait or labelling near it, and not all partners need be listed. For some assays here: Sequences can lack the tags named with a protein.

How the values were obtained:
[1] = biological target: T1, DRM2-FLAG-HA (pDRM2-DRM2-FLAG-HA in drm1drm2) (Arabidopsis thaliana) (UniProt Q9M548); experiment: affinity purification with mass spectrometry; FLAG IP of DRM2-FLAG-HA from flower whole cell extract on anti-FLAG M2 affinity gel, BC500 buffer + 0.1% NP-40 (500 mM KCl, pH 8.0), 4 °C, eluted with 3xFLAG peptide; three main gel bands analysed by nanoLC-MS/MS
T1 sequence: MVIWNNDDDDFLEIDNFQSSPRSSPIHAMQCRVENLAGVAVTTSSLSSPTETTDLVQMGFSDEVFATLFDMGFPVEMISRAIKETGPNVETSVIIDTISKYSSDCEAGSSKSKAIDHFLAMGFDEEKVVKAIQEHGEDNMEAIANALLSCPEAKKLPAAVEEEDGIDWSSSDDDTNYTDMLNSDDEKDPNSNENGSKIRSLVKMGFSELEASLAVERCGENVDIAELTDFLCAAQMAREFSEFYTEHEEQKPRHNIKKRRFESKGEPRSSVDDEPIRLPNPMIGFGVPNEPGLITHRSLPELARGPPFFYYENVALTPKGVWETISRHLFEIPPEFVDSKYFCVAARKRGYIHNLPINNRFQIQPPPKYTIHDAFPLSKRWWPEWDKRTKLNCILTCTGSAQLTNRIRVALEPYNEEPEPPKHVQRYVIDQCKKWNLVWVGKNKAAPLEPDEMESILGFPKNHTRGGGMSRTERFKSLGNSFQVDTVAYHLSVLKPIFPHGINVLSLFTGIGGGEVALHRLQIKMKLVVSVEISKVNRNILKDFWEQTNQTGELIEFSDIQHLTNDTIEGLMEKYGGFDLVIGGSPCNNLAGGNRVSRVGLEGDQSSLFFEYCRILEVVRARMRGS

[2] = biological target: T2, DRM2, endogenous (Col-0 flowers) (Arabidopsis thaliana (endogenous in flowers)) (UniProt Q9M548); experiment: conventional chromatographic co-purification with mass spectrometry; Col-0 flower whole cell extract over phosphocellulose P11, DEAE Sephacel, MonoQ and two Superdex200 columns (BC500 + 0.5% NP40); DRM2 followed by immunoblot; fractions 27-29 pooled, 11 gel bands between 62 and 30 kDa analysed by MS/MS
T2 sequence: T1 sequence

B1: U2AF56 Associated Protein 56 (UAP56a/b), endogenous (enzyme, UniProt Q56XG6 1-427)
chain: MGDARDNEAYEEELLDYEEEDEKVPDSGNKVNGEAVKKGYVGIHSSGFRDFLLKPELLRAIVDSGFEHPSEVQHECIPQAILGMDVICQAKSGMGKTAVFVLSTLQQIEPSPGQVSALVLCHTRELAYQICNEFVRFSTYLPDTKVSVFYGGVNIKIHKDLLKNECPHIVVGTPGRVLALAREKDLSLKNVRHFILDECDKMLESLDMRRDVQEIFKMTPHDKQVMMFSATLSKEIRPVCKKFMQDPMEIYVDDEAKLTLHGLVQHYIKLSEMEKNRKLNDLLDALDFNQVVIFVKSVSRAAELNKLLVECNFPSICIHSGMSQEERLTRYKSFKEGHKRILVATDLVGRGIDIERVNIVINYDMPDSADTYLHRVGRAGRFGTKGLAITFVASASDSEVLNQVQERFEVDIKELPEQIDTSTYMPS
[1]
  binding: binds
[2]
  binding: binds
